Assay results taken from US4829052A, “Serine protease inhibitors” (Monsanto Company, priority 1987, dated 1989).
Some entries share one result that the patent states for a list of compounds.

target: T1, Human Sputum Elastase (Homo sapiens, UniProt P08246); experiment: Elastase assay (spectrophotometric, p-nitroanilide substrate); assay type: biochemical; details: text discussion of Table III
T1 construct: Human Sputum Elastase, product No. SE-563 EPC, Inc., Pacific, Mo; USA, Lot 85701; purchased EPC, Inc., Pacific, Mo; USA SE-563; host or cells: human sputum
T1 sequence (P08246 30-267): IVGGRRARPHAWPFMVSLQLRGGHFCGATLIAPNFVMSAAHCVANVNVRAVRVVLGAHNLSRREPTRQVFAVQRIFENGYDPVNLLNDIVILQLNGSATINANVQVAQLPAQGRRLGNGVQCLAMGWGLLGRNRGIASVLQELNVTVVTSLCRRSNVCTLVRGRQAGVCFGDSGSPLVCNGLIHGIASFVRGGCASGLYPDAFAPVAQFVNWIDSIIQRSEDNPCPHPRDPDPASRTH
Experimental: The inhibitory activity of the polypeptides of the present invention can be easily assayed using in vitro assays. In these types of spectrophotometric assays the activity of the serine protease is measured toward an appropriate p-nitroanilide substrate in the presence and absence of the peptide inhibitor. The enzyme catalyzed hydrolysis of the peptide p-nitroanilide substrate produces p-nitroanaline which results in an increase in absorbance which is monitored in the range of 405 to 410 nm. The rate of increase in absorbance is a measure of the enzymatic activity and the decrease in this rate relative to a suitable control is used to ascertain inhibition. The general assay procedure and details of the particular assays employed in the examples are provided in the Appendix following the examples. It is also possible to test the polypeptides in a functionally oriented assay that emulates in vivo conditions. Such an inhibition assay for elastase is also described in the Appendix.
Generalized Protocol Spectrophotometric Assays:
(1) Pipette 100 μl of enzyme solution into a disposable polystyrene cuvette (1 cm optical path length).
(2) Add (1900-X) μl of bufferto the cuvette, where X is the volume of test solution in microliters that is added in the next step.
Add X μl of test solution to the cuvette, where X ranges from 0 μl for the control to a maximum of about 500 μl. Incubate the solution for a period of 1 to 5 minutes at ambient temperature.
(4) Add 100 μl of substrate solution to the cuvette. Mix the contents by covering the cuvette with a piece of paraffin film and repeatedly inverting for a period of 5 to 15 seconds.
(5) Record the change in absorbance for about 5 minutes at either 405 or 410 nm, depending on the assay, with a spectrophotometer equipped with a suitable recording device.
The percent inhibition is calculated from the formula [formula] where (ΔA/min) is the initial rate of absorbance change.
(7) For more accurate quantitative determinations temperature control of the cuvette holders and the reagent solutions can be instituted.
(8) The test solution can be crude oxidized peptide prepared as described above, fractions from a chromatographic separation or purified polypeptides.
(A) Buffer Solution - Tris-NaCl buffer consisting of 0.1M Tris-HCl pH 7.5 at 25° C. containing 0.5M NaCl and 0.01% (w/v) NaNs.
(B) Substrate Solution - Dissolve 45.5 mg of N-succinyl-L-alanyl-L-alanyl-L-alanine p-nitroanilide in 1 ml of 1-methyl-2-pyrrolidinone. Add 32 ml of Tris-NaCl buffer.
(C) Enzyme Solution - Human Sputum Elastase, product No. SE-563 EPC, Inc., Pacific, Mo. USA, Lot 85701. Dissolve 1 mg in 1 ml of Tris-NaCl buffer. Store on ice or at 4° C.
(D) Test Solution - See general protocol, number 8.
Procedure: Use the above solutions in the general protocol described above.
(1) Buffer Solution - Tris-NaCl buffer -see Method 1.
(2) Substrate Solution - Dissolve 50 mg of 3-carbomethoxypropionyl-L-alanyl-L-alanyl-L-[…]-L-valine p-nitroanilidein 1 ml of 1-methyl-2-pyrrolidinone. Add 32 ml of Tris-NaCl buffer.
(3) Enzyme Solution - Human sputum elastase, product No. SE-563, EPC, inc. Pacific, Mo. USA, Lot 85071. Prepare a sample at a concentration of 0.01 mg per ml of Tris-NaCl buffer. Store on ice.
(4) Test Solution - general protocol, number 8.
Procedure: Use the above solutions in the general protocol.
(1) Porcine pancreatic elastase may be substituted for human elastase when it is desired to test for an inhibitor of the former.
(2) The activity of an elastase preparation can be calculated as [formula]
(3) The Tris-NaCl buffer also can be pH 8.0 with 0.03% sodium azide. Results should be compared at a single pH.

Row | Substance | inhibition of human elastase (in words)
1 | RVCPVILLKCKKDSDCLAECVCLEHGYCG (RVCPVILLKCKKDSDCLAECVCLEHGYCG) [Peptide 45] | maintain the biological activity
2 | RVCGVILMKCKKDSDCLAECVCLEHGYCG (RVCGVILMKCKKDSDCLAECVCLEHGYCG) [Peptide 46] | maintain the biological activity
3 | RVCPVALMKCKKDSDCLAECVCLEHGYCG (RVCPVALMKCKKDSDCLAECVCLEHGYCG) [Peptide 48] | maintain the biological activity
4 | R V C P V I L Nle KCKKDSDCLAECVCLEHGYCG [Peptide 43] | maintain the biological activity
5 | R V C Hyp VILMKCKKDSDCLAECVCLEHGYCG [Peptide 47] | maintain the biological activity
6 | RVCPVSLMKCKKDSDCLAECVCLEHGYCG (RVCPVSLMKCKKDSDCLAECVCLEHGYCG) [Peptide 44] | maintain the biological activity
